Our source for the binding values is US20250313900A1, “COMPOSITIONS AND THERAPEUTIC AGENTS FOR MODULATING INFLAMMATORY RESPONSES ON BOTH TUMOR AND IMMUNE CELLS” (THE METHODIST HOSPITAL, priority 2022, published 2025).

By UniProt entry, the sequences of proteins in these tests, tags left out.
UniProt Q8IZR5: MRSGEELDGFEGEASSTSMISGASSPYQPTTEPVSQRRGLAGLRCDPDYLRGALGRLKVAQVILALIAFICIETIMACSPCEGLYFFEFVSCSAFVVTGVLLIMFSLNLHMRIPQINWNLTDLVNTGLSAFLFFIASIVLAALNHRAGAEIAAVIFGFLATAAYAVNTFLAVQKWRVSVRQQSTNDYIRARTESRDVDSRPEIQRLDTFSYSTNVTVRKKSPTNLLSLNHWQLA

No constants are given. Whether binding was seen depends on the method and setting. Binding seen in cells or lysates may run through a third protein. Some results given as binding are weak or reduced against the parent protein; the word gives no strength.

The experiment addresses T1, TRAF2 (in HCC827-CT cells) (human) (UniProt Q12933).
T1 sequence (looked up): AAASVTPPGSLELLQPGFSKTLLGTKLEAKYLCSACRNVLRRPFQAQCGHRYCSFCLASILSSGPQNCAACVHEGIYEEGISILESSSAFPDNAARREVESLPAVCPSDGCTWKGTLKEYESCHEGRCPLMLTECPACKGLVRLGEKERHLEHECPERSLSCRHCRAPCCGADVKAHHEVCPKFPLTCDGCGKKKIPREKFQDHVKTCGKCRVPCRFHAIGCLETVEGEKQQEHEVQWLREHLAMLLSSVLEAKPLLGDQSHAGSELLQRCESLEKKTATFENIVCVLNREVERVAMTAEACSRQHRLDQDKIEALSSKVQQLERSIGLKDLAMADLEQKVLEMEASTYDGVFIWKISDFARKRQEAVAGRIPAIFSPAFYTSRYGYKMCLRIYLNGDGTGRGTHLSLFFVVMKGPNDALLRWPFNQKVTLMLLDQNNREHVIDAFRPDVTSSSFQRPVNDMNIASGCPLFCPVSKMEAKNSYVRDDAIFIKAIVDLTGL
The experiment in a line: co-immunoprecipitation and western blot.

Turning to “CMTM4 in HCC827-CT cells (from UniProt Q8IZR5 1-234)”, the binding result is listed as “binds”.
